# About 7,500 (2.1%) of roughly 360,000 compounds were called active. This list was built around the results that the source calls inconclusive (neither active nor inactive); the mix of calls is not that of the screen. The call rests on the fitted dose curve; in most records, active means well fitted inhibition curve with a large enough effect; inconclusive means small, poorly fitted or top-dose-only effect, or effect the other way; inactive means flat fitted curve, though single readings scatter. Potencies beside an inconclusive call are fits to weak or partial responses and may not hold up.
# Assay: Nrf2 qHTS screen for inhibitors; further: nearly all actives have a fitted effect of over 60% in size
# Conditions: A549 ARE-Fluc reporter, luciferase luminescence, 18-24 h; activity change, negative = inhibition: at 46 µM (top of the series)
# Summary of the method: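 Reporter: ARE-Fluc in A549. Exposure: 18-24 h, 37 °C, 5% CO2, 5% FBS OPTI-MEM. Readouts: fluorescent cytotoxicity (CellTiter-Fluor), then luminescent Nrf2 signal after BugLite.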
# On the % scale 0 is the no-effect control and ±100 the full control effect; potency means the concentration at half of the fitted maximal effect.
SMILES,"activity change, negative = inhibition",Potency
O=C(NCc1cccc(F)c1)C1CCN(c2nc3ccccc3nc2C(F)(F)F)CC1,inactive: 23.2%,–
Cc1cccc(C2CC3(CC(C)(C)NC(=S)N3)Oc3cc(O)ccc32)c1 (stereo not given),inactive: 32.2%,–
CCn1c(SCC(=O)N/N=C(\C)c2ccncc2)nnc1-c1ccccc1,–,"inconclusive: 4.61 µM [falling, partial curve, poor fit]"
CC(C)(C)NC(=O)C(c1ccc(F)cc1)N(C(=O)CCC(=O)Nc1ccccn1)C1CCCC1 (stereo not given),–,"inconclusive: 32.6 µM [activator, single point]"
O=C(CCc1ccccc1)N=C1SC2CS(=O)(=O)CC2N1Cc1ccccc1 (stereo not given),–,"inconclusive: 32.6 µM [falling, single point]"
CC1CCN(S(=O)(=O)c2ccc(NC(=O)C3CCN(C(=O)c4ccco4)CC3)cc2)CC1,–,active: 13 µM
Cc1ccsc1C(=O)NNC(=O)C1C2C=CC(C2)C1C(=O)O (stereo not given),–,"inconclusive: 18.4 µM [activator, partial curve, poor fit]"
Cc1cccc(NC(=O)c2ccccc2C(=O)Nc2cccc(C)c2)c1,inactive: 4.55%,–
O=C(COC(=O)/C=C/c1ccc(OC(F)F)cc1)Nc1cccc(S(=O)(=O)N2CCOCC2)c1,–,"inconclusive: 29.1 µM [activator, single point]"
COCCNC(=O)CCn1c(=O)c2cc(OC)c(OC)cc2n(CC(=O)Nc2ccc(F)c(Cl)c2)c1=O,inactive: 2.38% [at 9.27 µM],–
CN(C(=O)CN1CCN(c2ccc([N+](=O)[O-])cn2)CC1)c1ccccc1,–,"inconclusive: 6.51 µM [falling, full curve, poor fit]"
Cc1ccc(-n2c(C)cc(/C=C3/SC(=O)N(CC(=O)N4CCOCC4)C3=O)c2C)nc1,–,"inconclusive: 10.3 µM [activator, partial curve]"
O=C(CSCc1ccc(Cl)cc1)N/N=C/c1ccc(Cl)cc1Cl,–,"inconclusive: 29.1 µM [falling, single point]"
Oc1[nH]c2ccc(Br)cc2c1N=NC(=S)Nc1ccc(F)cc1,–,"inconclusive: 29.1 µM [falling, single point]"
CC(C)c1ccc2oc(-c3ccc(Cl)c(NC(=O)c4cccs4)c3)nc2c1,–,"inconclusive: 16.4 µM [activator, partial curve]"
Cc1nc2ccc(S(=O)(=O)Nc3ccccc3C)cc2s1,–,"inconclusive: 29.1 µM [falling, single point]"
CCOC(=O)N1CCC(Nc2c(N3CCN(c4cccc(C(F)(F)F)c4)CC3)c(=O)c2=O)CC1,–,"inconclusive: 29.1 µM [falling, single point]"
Cc1cccc(C)c1OCc1cc(=O)n2c(-c3ccccc3)csc2n1,–,"inconclusive: 18.4 µM [falling, partial curve]"
Cc1[nH]ccc2c1[nH]c1cc(=O)ccc12,–,"inconclusive: 8.2 µM [activator, partial curve]"
Cn1nc(-c2ccc(OCC(=O)Nc3cccc(C(F)(F)F)c3)cc2)c2ccccc2c1=O,–,active: 25.9 µM

# Looked up one by one from the entries so far:
SMILES,"activity change, negative = inhibition",Potency
O=C(NCc1cccc(F)c1)C1CCN(c2nc3ccccc3nc2C(F)(F)F)CC1,inactive: 23.2%,–
CCn1c(SCC(=O)N/N=C(\C)c2ccncc2)nnc1-c1ccccc1,–,"inconclusive: 4.61 µM [falling, partial curve, poor fit]"

# Additional entries

SMILES,"activity change, negative = inhibition",Potency
O=[N+]([O-])c1cccc2ccc(/C=C/c3ccc(Cl)cc3)nc12,–,"inconclusive: 18.4 µM [activator, partial curve]"
CC(=O)C1=C(C)NC(SCC(=O)c2ccc(Cl)cc2)=C(C#N)C1c1ccco1 (stereo not given),–,"inconclusive: 18.4 µM [falling, single point]"
CC(C)C(=O)NNc1nc2ccccc2s1,–,"inconclusive: 16.4 µM [activator, partial curve, poor fit]"
CC(=O)Nc1ccc(Nc2ncnc3c2cnn3-c2ccccc2)cc1,–,"inconclusive: 2.06 µM [activator, partial curve, poor fit]"
Cc1ccc(C(=O)Nc2ccc(F)cc2)cc1S(=O)(=O)N1CCCCCC1,–,"inconclusive: 18.4 µM [falling, single point]"
Cc1ccc(CN(Cc2cc3cccc(C)c3[nH]c2=O)C(=S)NCCCN(C)C)cc1,–,"inconclusive: 5.8 µM [falling, partial curve, poor fit]"
CC[C@@]1(C(=O)OC)N[C@H](CN(C)C(=O)COC)[C@@H]2C(=O)N(C)C(=O)[C@@H]21,inactive: 4.33%,–
CN(C)c1nc(NCc2ccccc2)nc(SCC(N)=O)n1,–,"inconclusive: 9.2 µM [falling, partial curve, poor fit]"
Cc1ccc(S(=O)(=O)N2CN(Cc3ccco3)c3nc4ccccc4nc32)cc1,–,"inconclusive: 29.1 µM [falling, single point]"
Fc1ccc(-c2nc3ccccc3[nH]2)cc1,–,"inconclusive: 7.31 µM [activator, partial curve]"
CC1CCCN(Cc2nc(Cc3ccccc3Cl)no2)C1 (stereo not given),–,"inconclusive: 29.1 µM [activator, single point]"
COc1ccc(-c2csc(NC(=O)CCS(=O)(=O)c3ccccc3)n2)c(OC)c1,–,"inconclusive: 18.4 µM [falling, single point]"
Cc1c(NC(=O)COC(=O)C(c2ccc(Cl)cc2)C(C)C)c(=O)n(-c2ccccc2)n1C (stereo not given),–,"inconclusive: 29.1 µM [falling, single point]"
COc1ccc(CCNC(=O)Cn2nnc(C(=O)Nc3cccc(C)c3C)c2N)cc1OC,–,"inconclusive: 25.9 µM [falling, single point]"
O=C(Cc1cccc(C(F)(F)F)c1)NCc1cccc(Cl)c1,inactive: 2.9%,–
CN(C)c1ccc(/C=N\Nc2ccccn2)cc1,–,"inconclusive: 6.51 µM [activator, partial curve]"
O=C(NC1CCCCC1)c1ccc(-c2ccccc2)cc1,–,"inconclusive: 8.2 µM [activator, partial curve]"
O=S(=O)(c1cccs1)N1CN(C2CCCCC2)c2nc3ccccc3nc21,–,"inconclusive: 32.6 µM [falling, single point]"
COc1ccc(-c2csc(NC(=O)CSC(C)C(=O)Nc3cc(C)on3)n2)cc1OC (stereo not given),–,"inconclusive: 29.1 µM [falling, single point]"
Cc1ccc(S(=O)(=O)N2[C@@H](c3ccc(Br)cc3)C(C(=O)O)=CC[C@H]2c2cccs2)cc1,–,"inconclusive: 20.6 µM [falling, partial curve, poor fit]"

# Source: PubChem BioAssay AID504444 (National Center for Advancing Translational Sciences (NCATS), 2011)
